{"source": "patent US7033604B2", "about": "“Composition for topical administration” (Sucampo AG, priority 2001, dated 2006)", "key": {"[1]": {"tested_on": "Pseudomonas aeruginosa IID-1210", "experiment": "Anti-microbial test: viable bacterial counts in wounded rabbit cornea inoculated with Pseudomonas aeruginosa", "format": "in vivo", "details": "0.3% ofloxacin, single topical application", "protocol": "Single colony isolate of Pseudomonas aeruginosa IID-1210 (provided by Department of Ophthalmology, Yokohama City University School of Medicine, Japan) on NAC agar plate was inoculated in 2 mL of heart infusion broth, and kept for overnight at 37° C. One hundred microliters of the overnight culture was inoculated in 10 mL of heart infusion broth, and then grown for about 12 hours at 37° C. with shaking. Twelve Japanese white rabbits (13 weeks old, Std: JW/CSK, Japan SLC, Inc.) were anesthetized by intravenous injection of pentobarbital sodium (25 mg/kg), and then topical anesthesia was made by instillation of 0.4% oxybuprocaine hydrochloride to both eyes. The corneal wound was produced bilaterally using a 6-mm trephine and 27-gauge needle according to the method described by Hatano H et al. (Japanese Review of Clinical Ophthalmology 79: 1153, 1985). Forty microliters of the bacterial suspension prepared above was instilled onto the wounded cornea twice (Day 1, 21:00). After bacterial inoculation, the rabbits were divided into 4 groups (three rabbits-six eyes/group). […] The colonies were then counted. All quantitative cultures were run in triplicate, and the arithmetic mean of three measurements was determined for each cornea. Results were expressed as the number of organisms (determined by measures of colony forming units [CFU]) per gram of corneal weight."}, "[2]": {"tested_on": "Experimental Pseudomonas keratitis", "experiment": "Anti-inflammatory test: slit lamp scoring of conjunctival and corneal inflammation in experimental Pseudomonas keratitis", "format": "in vivo, Japanese white rabbits", "details": "0.3% ofloxacin, 4 times a day", "protocol": "Experimental Pseudomonas keratitis was induced for 12 Japanese white rabbits (13 weeks old, Std: JW/CSK) as described in Test Experiment 1. After bacterial inoculation, the rabbits were divided into 4 groups (three rabbits-six eyes/group). Fifty microliters of each test substance or vehicle was topically applied to both eyes of each animal 4 times a day at intervals of 4 hours beginning 12 hours after the bacterial inoculation. The test substance and vehicle were the same as those used in Test Example 1. Rabbit eyes were examined with a slit lamp biomicroscope, and severity of conjunctival inflammation at 48 hours after bacterial inoculation and corneal inflammation at 60 hours after bacterial inoculation were evaluated by assigning a numerical value to the following signs based on the method described by Kuriyama H et al. Corneal inflammation was evaluated by sums of the scores of corneal opacity (score 0–8) and corneal ulcer (score 0–3). Conjunctival inflammation was evaluated by sums of the scores of redness of palpebral conjunctival inflammation (score 0–4), edema of palpebral conjunctiva (score 0–4), nictitating membrane status (score 0–3) and discharge (score 0–3)."}}, "note": "At least one compound was matched to its structure with a doubt left."}
{"smiles": "CC1COc2c(N3CCN(C)CC3)c(F)cc3c(=O)c(C(=O)O)cn1c23", "note": "(stereo not drawn) [ofloxacin]", "values": [{"measurement": "Effect on viable Pseudomonas counts (in words)", "setting": "[1]", "result": "eradicated the bacteria"}, {"measurement": "Effect on conjunctival inflammation (in words)", "setting": "[2]; 48 hours after inoculation", "result": "tended to decrease the conjunctival inflammation"}, {"measurement": "Effect on corneal inflammation (in words)", "setting": "[2]; 60 hours after inoculation, compared with vehicle treatment", "result": "decreased significantly the corneal inflammation"}]}
